According to patent publication US10092537B2, “Use for PAI-1 inhibitor” (RENASCIENCE CO., LTD., priority 2013, dated 2018):
At least one compound was matched to its structure with a doubt left.

Tests used:
CML cells = assay: Chronic myelogenous leukemia model mice, imatinib with compound d or compound e (Experimental Example 17); type: in vivo; details: imatinib 150 mg/kg/day + compound d or compound e 10 mg/kg/day via gavage, day 8 to day 14
Method: Group 1: placebo group (physiological saline was administered via gavage)
Group 2: imatinib group (imatinib [150 mg/kg/day] was administered via gavage)
Group 3: imatinib+compound d group (imatinib [150 mg/kg/day] and compound d [10 mg/kg/day] were administered via gavage)
Group 4: imatinib+compound e group (imatinib [150 mg/kg/day] and compound e [10 mg/kg/day] were administered via gavage)
8 days after (day 8) the day (day 0) on which CML cells were intravenously inoculated, administration of test drugs to the groups was started. The placebo group and the imatinib group were administered the respective test drugs once a day from day 8 to day 14 (7 doses in total). The imatinib+compound d group and imatinib+compound e group were administered imatinib once a day from day 8 to day 14 (7 doses in total), and also administered compound d or e once a day from day 8 to day 14 (7 doses in total).

Her2-A20 cells = assay: Her2-A20 cell subcutaneous tumor, Herceptin and compound d (Experimental Example 20); type: in vivo, BALB/c-nude mice; details: Herceptin 20 mg/kg i.p. (day 0, day 11) + compound d 10 mg/kg/day; 25 days after administration
[1] = tested on: long-term hematopoietic stem cells; assay: Long-term hematopoietic stem cells: 15 weeks after transplantation, successive transplantation, limiting dilution (Experimental Example 10); type: in vivo, mice; details: 12 weeks after successive transplantation; donors transplanted with 2×10E3 Ly5.1 positive cells
Method: 15 weeks after bone-marrow transplantation, the control group, tPA group, and compound a-administered group (12 mice for each group) were measured for the number of bone-marrow mononucleic cells (BM MNC), frequency and absolute number of Lin-SLAM cells, and frequency of and absolute number LSK-CD34 negative cells.
15 weeks after the initial bone-marrow transplantation, bone marrow was collected from mice of the control group, tPA group, and compound a-administered group, and the collected bone marrow was transplanted into other mice (successive transplantation). In the successive transplantation, none of physiological saline, tPA, or compound a was administered.
12 weeks after successive transplantation, the chimerism of donor-derived bone marrow hematopoietic cells was measured.
To compare the frequency of long-term hematopoietic stem cell, donor-derived bone marrow to be transplanted first was diluted and transplanted, and the effect of PAI-1 inhibition was evaluated by a limiting dilution technique. […]
After successive transplantation, the frequency (CRU frequency) of hematopoietic stem cells having the hematopoietic regeneration capacity was calculated.

[2] = tested on: HER2-positive human ovarian cancer cell lines SKOV3; assay: SKOV3 ovarian cancer subcutaneous tumor, Herceptin and compound d (Experimental Example 21); type: in vivo, BALB/c-nude mice

Compound: O=C(Nc1ccc(Cl)cc1C(=O)O)c1cccc(-c2cccc3cccnc23)c1 [Example 68, sodium 5-chloro-2-({[3-(quinolin-8-yl)phenyl]carbonyl}amino)benzoate]
- survival (CML cells): some mice survived even after day 40
- tumor volume versus other groups (Her2-A20 cells): significantly smaller
- mice exhibiting more than 0.05% of the frequency of Ly5.1 positive cells [1]: 3 out of 5
- tumor volume versus other groups ([2]; Herceptin 5 mg/kg i.p. once + compound d 10 mg/kg/day oral, 30 days after administration): significantly smaller
- tumor volume ([2]; compound d 10 mg/kg/day alone, without Herceptin): did not show a marked difference from the placebo group
